# According to publication PMC8384837:
# Residue numbers refer to the chain shown, from its start. Some of the results follow. At the low end of the ranking, values are background and their order means little.
# What was measured:
# Conditions in all cases: yeast three-hybrid, YBZ-1, SC-Leu-His + 0.5 mM 3-AT, 4 days
# [1] = target: T1, PUM1 PUF domain R6-GHR N1043G + Y1044H + Q1047R (UniProt Q14671)
# T1 sequence: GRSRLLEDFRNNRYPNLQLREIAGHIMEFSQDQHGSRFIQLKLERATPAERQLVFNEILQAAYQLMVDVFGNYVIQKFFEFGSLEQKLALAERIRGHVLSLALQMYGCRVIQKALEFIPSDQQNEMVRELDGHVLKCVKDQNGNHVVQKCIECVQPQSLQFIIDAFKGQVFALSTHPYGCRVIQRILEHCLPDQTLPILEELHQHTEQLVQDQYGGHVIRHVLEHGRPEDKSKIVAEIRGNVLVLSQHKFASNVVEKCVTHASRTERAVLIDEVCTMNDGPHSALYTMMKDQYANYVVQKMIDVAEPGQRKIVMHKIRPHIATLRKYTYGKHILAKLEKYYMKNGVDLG
# [2] = target: T2, PUM1 PUF domain R6-GWC N1043G + Y1044W + Q1047C (UniProt Q14671)
# T2 sequence: T1 sequence with H217W, R220C
# [3] = target: T3, PUM1 PUF domain R6-GWI N1043G + Y1044W + Q1047I (UniProt Q14671)
# T3 sequence: T1 sequence with H217W, R220I
# [4] = target: T4, PUM1 PUF domain R6-GWM N1043G + Y1044W + Q1047M (UniProt Q14671)
# T4 sequence: T1 sequence with H217W, R220M
# [5] = target: T5, PUM1 PUF domain R6-GYK N1043G + Q1047K (UniProt Q14671)
# T5 sequence: T1 sequence with H217Y, R220K
# [6] = target: T6, PUM1 PUF domain R6-GYR N1043G + Q1047R (UniProt Q14671)
# T6 sequence: T1 sequence with H217Y
# [7] = target: T7, PUM1 PUF domain R6-HFG N1043H + Y1044F + Q1047G (UniProt Q14671)
# T7 sequence: T1 sequence with G216H, H217F, R220G
# [8] = target: T8, PUM1 PUF domain R6-HYR N1043H + Q1047R (UniProt Q14671)
# T8 sequence: T1 sequence with G216H, H217Y
# [9] = target: T9, PUM1 PUF domain R6-HYS N1043H + Q1047S (UniProt Q14671)
# T9 sequence: T1 sequence with G216H, H217Y, R220S
# [10] = target: T10, PUM1 PUF domain R6-IFM N1043I + Y1044F + Q1047M (UniProt Q14671)
# T10 sequence: T1 sequence with G216I, H217F, R220M
# [11] = target: T11, PUM1 PUF domain R6-IWK N1043I + Y1044W + Q1047K (UniProt Q14671)
# T11 sequence: T1 sequence with G216I, H217W, R220K
# [12] = target: T12, PUM1 PUF domain R6-IWR N1043I + Y1044W + Q1047R (UniProt Q14671)
# T12 sequence: T1 sequence with G216I, H217W
# [13] = target: T13, PUM1 PUF domain R6-IYL N1043I + Q1047L (UniProt Q14671)
# T13 sequence: T1 sequence with G216I, H217Y, R220L
# [14] = target: T14, PUM1 PUF domain R6-KFG N1043K + Y1044F + Q1047G (UniProt Q14671)
# T14 sequence: T1 sequence with G216K, H217F, R220G
# [15] = target: T15, PUM1 PUF domain R6-KWR N1043K + Y1044W + Q1047R (UniProt Q14671)
# T15 sequence: T1 sequence with G216K, H217W
# [16] = target: T16, PUM1 PUF domain R6-LFG N1043L + Y1044F + Q1047G (UniProt Q14671)
# T16 sequence: T1 sequence with G216L, H217F, R220G
# [17] = target: T17, PUM1 PUF domain R6-LFS N1043L + Y1044F + Q1047S (UniProt Q14671)
# T17 sequence: T1 sequence with G216L, H217F, R220S
# [18] = target: T18, PUM1 PUF domain R6-LFV N1043L + Y1044F + Q1047V (UniProt Q14671)
# T18 sequence: T1 sequence with G216L, H217F, R220V
# [19] = target: T19, PUM1 PUF domain R6-LHS N1043L + Y1044H + Q1047S (UniProt Q14671)
# T19 sequence: T1 sequence with G216L, R220S
# [20] = target: T20, PUM1 PUF domain R6-LWC N1043L + Y1044W + Q1047C (UniProt Q14671)
# T20 sequence: T1 sequence with G216L, H217W, R220C
sequence,measurement,setting,value
GGCUAGAACUAGUGGAUCCCCCGGCGCCCGGCGGCUCGAGCCCGGGUAAGUGGAAAUAGUCUGCAUGCCGCCGGGCGCCAUGCCUGCAGGUCGACUCUAGAAAACAUG,binding signal (log2 enrichment (interaction score)),[1],< -6.68
same,binding signal (log2 enrichment (interaction score)),[2],< -8.53
same,binding signal (log2 enrichment (interaction score)),[3],< -8.21
same,binding signal (log2 enrichment (interaction score)),[4],< -9.13
same,binding signal (log2 enrichment (interaction score)),[5],< -7.38
same,binding signal (log2 enrichment (interaction score)),[6],< -8.97
same,binding signal (log2 enrichment (interaction score)),[7],< -6.74
same,binding signal (log2 enrichment (interaction score)),[8],< -7.1
same,binding signal (log2 enrichment (interaction score)),[9],< -7.71
same,binding signal (log2 enrichment (interaction score)),[10],< -8.09
same,binding signal (log2 enrichment (interaction score)),[11],< -7.75
same,binding signal (log2 enrichment (interaction score)),[12],< -7.27
same,binding signal (log2 enrichment (interaction score)),[13],< -6.9
same,binding signal (log2 enrichment (interaction score)),[14],< -8.3
same,binding signal (log2 enrichment (interaction score)),[15],< -8.86
same,binding signal (log2 enrichment (interaction score)),[16],< -8.54
same,binding signal (log2 enrichment (interaction score)),[17],< -6.62
same,binding signal (log2 enrichment (interaction score)),[18],< -8.49
same,binding signal (log2 enrichment (interaction score)),[19],< -7.3
same,binding signal (log2 enrichment (interaction score)),[20],< -6.88

# Rewritten tab-delimited: part of the list above
sequence	measurement	setting	value
GGCUAGAACUAGUGGAUCCCCCGGCGCCCGGCGGCUCGAGCCCGGGUAAGUGGAAAUAGUCUGCAUGCCGCCGGGCGCCAUGCCUGCAGGUCGACUCUAGAAAACAUG	binding signal (log2 enrichment (interaction score))	[2]	< -8.53
same	binding signal (log2 enrichment (interaction score))	[6]	< -8.97
